This is one part of the list. These are further read-outs of the screen, such as a control signal, another cell line or another target. No call is given for them. Most of these compounds were active or inconclusive in the main read-out, so they are no random draw. Words in brackets tell the shape of the fitted curve; partial curves, single points and poor fits give uncertain potencies.
Assay: qHTS Assay to Find Inhibitors of Chronic Active B-Cell Receptor Signaling
Conditions: ABC-DLBCL IkBa-CBG/CBR reporter, luminescence ratio (green luciferase fused to IkBa over red control in TMD8 lymphoma cells), 4 h
Outline: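 TMD8 ABC-DLBCL cells carrying doxycycline-inducible green luciferase fused to IkappaBalpha plus unfused red luciferase were exposed to compounds (up to 46 uM) for 4 hrs at 37C. Activity came from the overlap-corrected green/red luminescence ratio.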

[1] = measured here: CBR red luminescence, cell number
[2] = measured here: IkBa-CBG green luminescence

| SMILES | AC50 [1] | AC50 [2] |
| --- | --- | --- |
| CC(=O)c1cc2c(cc1NC(=O)C1CC1)OCO2 | 1.84 µM [falling, full curve, poor fit] | 25.9 µM [rising, partial curve, poor fit] |
| Cc1ccc(OCCC(=O)N(Cc2ccccc2)c2c(N)n(Cc3ccccc3)c(=O)[nH]c2=O)cc1 | 32.6 µM [falling, single point] |  |
| CC(c1ccccc1)N1CCn2c(nc3cc(NS(C)(=O)=O)ccc32)C1 (stereo not drawn) | 4.47 µM [rising, partial curve, poor fit] |  |
| CCNc1nnc(-c2ccccc2OC)s1 | 3.55 µM [rising, partial curve, poor fit] |  |
| Cc1cccc(N2CCN(C(=O)c3ccncc3)CC2C)c1 (stereo not drawn) | 23.1 µM [falling, single point] |  |
| Cc1cc(C)c(NC(=O)c2ccc3c(c2)NC(=O)C(C)S3)c(C)c1 (stereo not drawn) | 20.6 µM [falling, partial curve] |  |
| Cc1ccc(/C=N/N(C)S(=O)(=O)c2ccc(C)cc2)cc1 | 7.08 µM [falling, partial curve, poor fit] |  |
| Cc1cc(/C=C(\C#N)C(=O)NC2CC2)c(C)[nH]1 | 18.4 µM [falling, partial curve] |  |
| O=C1Nc2cc(Cl)c(Cl)cc2N(O)N1c1cc(Cl)cc(Cl)c1 | 0.708 µM [falling, full curve, poor fit] |  |
| CC(C)(C)C(=O)CSc1ncnc2c1cnn2Cc1ccccc1 | 35.5 µM [rising, single point] |  |
| CCOC(=O)[C@H]1[C@H]2COc3ccc(Br)cc3[C@@H]2N2C(=O)c3cc(OC)c(OC)cc3NC(=O)[C@@]12C | 16.4 µM [falling, partial curve, poor fit] |  |
| O=C(CN1CCN(S(=O)(=O)c2ccc(Cl)cc2)CC1)Nc1ccc(F)cc1F | 15.8 µM [falling, partial curve, poor fit] |  |
| N/C(=N\OC(=O)CCC1CCCC1)c1ccc(Cl)cc1 | 2.82 µM [rising, partial curve, poor fit] |  |
| COC(=O)c1ccc(CN(c2ccc(C(=O)O)c(O)c2)S(=O)(=O)c2ccc(Cl)c([N+](=O)[O-])c2)cc1 | 12.6 µM [falling, partial curve] | 15.8 µM [rising, single point] |
| C=CCN(c1ccccc1OC)S(=O)(=O)c1cccc(C(=O)Nc2nnc(C3CC3)s2)c1 | 10.3 µM [falling, partial curve] |  |
| O=C(N/N=C/C=C\c1ccco1)c1cccnc1 | 10 µM [falling, partial curve] |  |
| Cc1ccnc(NC(=O)c2cccc(S(=O)(=O)Nc3ccc(C)cc3C)c2)c1 | 29.1 µM [rising, single point] | 16.4 µM [falling, partial curve, poor fit] |
| CN(Cc1c(F)cccc1Cl)C(=O)C1CC(=O)N(CCc2ccccc2)C1 (stereo not drawn) | 11.2 µM [rising, partial curve, poor fit] |  |
| Cc1cc(C)c(C)c(S(=O)(=O)N2CCN(C(=S)NCC3CCCO3)CC2)c1C (stereo not drawn) | 0.891 µM [rising, partial curve, poor fit] |  |
| CCc1cc(-c2[nH]ncc2-c2nc3ccccc3n2C)c(O)cc1O | 15.8 µM [falling, partial curve, poor fit] |  |

A stretch from the list above, as a working copy:

| SMILES | AC50 [1] | AC50 [2] |
| --- | --- | --- |
| CN(Cc1c(F)cccc1Cl)C(=O)C1CC(=O)N(CCc2ccccc2)C1 (stereo not drawn) | 11.2 µM [rising, partial curve, poor fit] |  |
| Cc1cc(C)c(C)c(S(=O)(=O)N2CCN(C(=S)NCC3CCCO3)CC2)c1C (stereo not drawn) | 0.891 µM [rising, partial curve, poor fit] |  |

(listing goes on)

| SMILES | AC50 [1] | AC50 [2] |
| --- | --- | --- |
| CCCn1c(Nc2nc3ccccc3n2C)nc2ccccc21 | 28.2 µM [falling, single point] | 25.1 µM [falling, partial curve, poor fit] |
| CCS(=O)(=O)Nc1ccc(-c2nc3cccnc3s2)cc1 | 11.2 µM [falling, single point] |  |
| Cc1ccc(NC(=O)CSCC(=O)N2c3ccccc3CCc3ccccc32)cc1 | 17.8 µM [falling, single point] |  |
| Cc1ccc(N2CCN(C(=O)NC3CCCCC3)CC2C)cc1 (stereo not drawn) | 6.31 µM [rising, single point] |  |
| O=S(=O)(c1cccc2cccnc12)N1CCN(c2ccccc2)CC1 | 0.116 µM [falling, full curve, poor fit] |  |
| C=C1N(CCCCCC(=O)O)C(=O)OC12CCCCC2 | 1.46 µM [rising, full curve, poor fit] |  |
| O=c1cc2c(nn1Cc1cccc([N+](=O)[O-])c1)-c1ccccc1CC2 | 35.5 µM [falling, single point] |  |
| CCc1cc(=O)oc2cc(OC(C)=O)cc(OC(C)=O)c12 | 7.94 µM [falling, partial curve] |  |
| CC(C)(C)c1ccc(-c2noc(CCC(N)=O)n2)cc1 | 20 µM [falling, partial curve, poor fit] |  |
| CCCOc1ccc(N2C(=O)CC(NCc3ccncc3)C2=O)cc1 (stereo not drawn) | 10 µM [rising, partial curve, poor fit] |  |
| COc1ccccc1-c1nnc2sc(COc3ccc(F)cc3)nn12 | 3.55 µM [falling, full curve, poor fit] |  |
| CCOC(=O)C1CCN(C(=O)C2c3ccccc3C(=O)N(C)C2c2ccc(OC)cc2)CC1 (stereo not drawn) | 7.31 µM [falling, partial curve, poor fit] |  |
| Cc1c(C(=O)NNC(=S)Nc2ccc(S(N)(=O)=O)cc2)oc2ccccc12 | 12.6 µM [falling, partial curve] |  |
| O=C(Cn1cc(SCc2cccc(Cl)c2)c2ccccc21)N1CCOCC1 | 8.2 µM [falling, partial curve] |  |
| CC(=O)c1ccc(N2CCN(C(=O)CN(C)S(=O)(=O)c3cnc[nH]3)CC2)cc1 | 5.62 µM [falling, single point] |  |
| O=C(CSC(=S)N1CCOCC1)c1ccccc1 | 13 µM [falling, partial curve] |  |
| O=C(NC(=S)NCCc1ccc(Cl)cc1)c1ccco1 | 1.84 µM [rising, partial curve] |  |
| COc1ccc(OC)c(CCNC(=O)CCCC(=O)n2ncc3cc(C)ccc32)c1 | 0.891 µM [rising, full curve, poor fit] |  |
| COc1cccc(C2Oc3ccccc3C3CC(c4cccs4)=NN32)c1 (stereo not drawn) | 20 µM [falling, single point] |  |
